Only a part is listed here, and it is no random draw. Where no call is shown, the source filed none. Inconclusive results are not listed. The source made the active and inactive calls. Calls come from the whole dose curve; as a rule, active = well fitted activation curve with a large enough effect; inconclusive = small, poorly fitted or top-dose-only effect; inactive = no such curve, though single readings can be large or run the other way.
Assay: qHTS Assay for Identifying a Potential Treatment of Ataxia-Telangiectasia: Secondary assay (no NCS) hit validation;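 note: phosphorylated KAP1 signal as a proxy for ATM-like kinase activity; 0% is about no effect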
Conditions: A-T patient fibroblasts, AlphaLISA, no DNA damage added, 90 min; at 76.9 µM (top of the series)
Text: NIH Chemical Genomics Center [NCGC]
NIH Molecular Libraries Probe Centers Network [MLPCN]
Assay Submitter (PI): Wei Zheng and Yosef Shiloh
Ataxia-telangiectasia (A-T) is a devastating and progressive disease for which, there is no cure. Although A-T is a multisystem disease, it is stereotyped characterized by its neurological symptoms such as truncal ataxia, due to cerebellar cortical degeneration of the Purkinje and granule cells. Other symptoms of A-T are telangiectasias (dilated blood vessels), primary immunodeficiency, marked sensitivity to ionizing radiation (IR), chromosomal instability and predisposition to cancer.
The underlying genetic cause of A-T is null mutations in the ATM (A-T mutated) gene. ATM is a nuclear serine/threonine kinase that functions as a master regulator of the cellular responses to double strand breaks (DSBs) in the DNA. Upon activation by DSBs, ATM phosphorylates a plethora of downstream targets, including KAP-1 on […]. KAP-1 phosphorylation occurs shortly in response to DSBs and mediates global chromatin relaxation, which facilitates DSB repair. To screen for small molecules that will compensate for the loss of ATM in cells derived from A-T patients, we monitored KAP-1 phosphorylation as a readout for ATM-like activity using an AlphaLISA assay. This secondary assay omits NCS, which creates double-stranded DNA breaks.
Step,Parameter,Value,Description
1. Cell Plating, 3 ul, 500 cells/well in OPTI-MEM, 1% FBS, 1% Pen/Strep
3. Library compounds, 23 nl, 76.7 - 0.61uM dilution series final concentration
4. Incubation, 60 min, 37C, 5% CO2, 95% humidity
6. Incubation, 30 min, 37C, 5% CO2, 95% humidity
7. Reagent, 1 ul, Premixed detection reagents and lysis buffer
8. Reagent, 1 ul, 0.6% Antifoam A
9. Incubation, 6 hr, 25C, 95% humidity
10. Readout, EnVision, EnVision plate reader. AlphaScreen 1536-well protocol
Cells were plated using medium-binding white solid-bottom tissue culture treated Kalypsys plates. […] EnVision protocol for 1536-well AlphaScreen read (30ms excitation, 100ms read), about 10 min/plate.

Structure (SMILES) | activation
COCCNC(=O)c1c(N)n(-c2cccc(C)c2)c2nc3ccccc3nc12 | 180%
Cc1ccc(C(C)C)c(OCCN2CCc3ccccc3C2)c1 | 223%
CCC(=O)NC1=C(Cl)C(=O)C(NC(=O)CC)=C(Cl)C1=O | inactive: 16.1%

Reference: PubChem BioAssay AID493201 (National Center for Advancing Translational Sciences (NCATS), 2011)
